Test results: article PMC11260465
These are yes or no findings as the source states them, for the method shown. In cells and extracts the contact can be indirect. Some entries that bind do so weakly or less than the wild type. Tags and fused reporters may be left off the sequences shown.

Sequences of proteins named here, by UniProt entry; tags and fusion partners are left off.
UniProt Q9NS91: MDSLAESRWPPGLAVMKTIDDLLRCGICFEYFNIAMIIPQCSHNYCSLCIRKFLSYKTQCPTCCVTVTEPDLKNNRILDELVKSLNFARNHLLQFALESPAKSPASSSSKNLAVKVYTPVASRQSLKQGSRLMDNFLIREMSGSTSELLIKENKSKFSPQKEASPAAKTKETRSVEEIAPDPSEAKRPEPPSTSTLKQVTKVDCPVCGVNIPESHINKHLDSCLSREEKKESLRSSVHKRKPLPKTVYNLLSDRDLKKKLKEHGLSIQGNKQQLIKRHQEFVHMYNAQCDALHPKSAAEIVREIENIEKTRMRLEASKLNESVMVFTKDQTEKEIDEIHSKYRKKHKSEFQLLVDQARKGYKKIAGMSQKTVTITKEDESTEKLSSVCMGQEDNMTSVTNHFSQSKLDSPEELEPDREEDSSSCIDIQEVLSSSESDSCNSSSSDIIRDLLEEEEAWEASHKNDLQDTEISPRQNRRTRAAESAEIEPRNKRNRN

Molecular target: T1, EGFP-SLF1 (wild type), U2OS (UniProt Q9BQI6)
T1 sequence: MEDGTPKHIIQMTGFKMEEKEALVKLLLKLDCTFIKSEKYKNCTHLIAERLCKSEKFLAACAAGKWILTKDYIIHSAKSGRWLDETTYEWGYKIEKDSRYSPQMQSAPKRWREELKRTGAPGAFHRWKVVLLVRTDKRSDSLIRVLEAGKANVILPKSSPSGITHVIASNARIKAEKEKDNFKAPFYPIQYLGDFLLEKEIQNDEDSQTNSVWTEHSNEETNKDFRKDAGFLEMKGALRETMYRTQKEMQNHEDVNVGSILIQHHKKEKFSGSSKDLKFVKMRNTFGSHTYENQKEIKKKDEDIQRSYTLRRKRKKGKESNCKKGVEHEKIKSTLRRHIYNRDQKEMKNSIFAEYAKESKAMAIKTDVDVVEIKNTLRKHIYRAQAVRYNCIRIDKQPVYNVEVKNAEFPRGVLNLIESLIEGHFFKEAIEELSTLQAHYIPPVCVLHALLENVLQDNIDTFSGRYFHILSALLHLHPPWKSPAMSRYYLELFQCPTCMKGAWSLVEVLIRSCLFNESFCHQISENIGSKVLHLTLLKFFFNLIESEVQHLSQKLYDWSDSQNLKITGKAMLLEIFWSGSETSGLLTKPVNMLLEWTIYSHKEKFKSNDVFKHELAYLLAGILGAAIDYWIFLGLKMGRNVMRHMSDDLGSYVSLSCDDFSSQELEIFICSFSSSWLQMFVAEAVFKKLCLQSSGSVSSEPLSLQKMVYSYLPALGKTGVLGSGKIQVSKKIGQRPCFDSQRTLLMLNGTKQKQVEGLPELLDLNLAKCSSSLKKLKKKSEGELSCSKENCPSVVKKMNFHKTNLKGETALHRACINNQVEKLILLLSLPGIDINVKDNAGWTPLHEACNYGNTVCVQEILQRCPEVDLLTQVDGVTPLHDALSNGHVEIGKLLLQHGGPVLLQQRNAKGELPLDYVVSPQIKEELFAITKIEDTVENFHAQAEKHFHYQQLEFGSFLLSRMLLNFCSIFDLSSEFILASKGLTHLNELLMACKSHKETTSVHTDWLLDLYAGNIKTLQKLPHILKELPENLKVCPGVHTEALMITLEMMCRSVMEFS
Test: proximity ligation; U2OS transfected with EGFP-SLF1 variants, IR-irradiated as indicated 2 h before fixation; PLA with RAD18 and GFP antibodies; nuclear PLA intensity normalised to SLF1-WT in S cells

binding: binds
Substance: RAD18, endogenous (U2OS) (from UniProt Q9NS91 1-495)
